Results: article doi:10.1101/2022.03.04.482944
Results are given in words; binding and its absence hold for the method and conditions named.

By UniProt entry, the sequences of proteins in these tests, tags left out. Residues count along the entry.
UniProt O00238, residues 14-502: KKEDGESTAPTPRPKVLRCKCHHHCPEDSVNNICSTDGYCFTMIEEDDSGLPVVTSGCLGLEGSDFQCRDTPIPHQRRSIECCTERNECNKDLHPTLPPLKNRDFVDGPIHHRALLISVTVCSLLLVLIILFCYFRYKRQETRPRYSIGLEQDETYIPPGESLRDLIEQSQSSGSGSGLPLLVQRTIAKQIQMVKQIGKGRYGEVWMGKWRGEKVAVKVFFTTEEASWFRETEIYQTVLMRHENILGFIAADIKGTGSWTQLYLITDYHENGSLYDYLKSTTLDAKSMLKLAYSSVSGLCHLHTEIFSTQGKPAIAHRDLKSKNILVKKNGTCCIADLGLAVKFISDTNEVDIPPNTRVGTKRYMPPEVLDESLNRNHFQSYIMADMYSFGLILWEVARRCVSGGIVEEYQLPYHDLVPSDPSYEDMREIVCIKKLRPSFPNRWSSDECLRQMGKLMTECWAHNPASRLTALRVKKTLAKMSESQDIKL
UniProt P37173, residues 23-567: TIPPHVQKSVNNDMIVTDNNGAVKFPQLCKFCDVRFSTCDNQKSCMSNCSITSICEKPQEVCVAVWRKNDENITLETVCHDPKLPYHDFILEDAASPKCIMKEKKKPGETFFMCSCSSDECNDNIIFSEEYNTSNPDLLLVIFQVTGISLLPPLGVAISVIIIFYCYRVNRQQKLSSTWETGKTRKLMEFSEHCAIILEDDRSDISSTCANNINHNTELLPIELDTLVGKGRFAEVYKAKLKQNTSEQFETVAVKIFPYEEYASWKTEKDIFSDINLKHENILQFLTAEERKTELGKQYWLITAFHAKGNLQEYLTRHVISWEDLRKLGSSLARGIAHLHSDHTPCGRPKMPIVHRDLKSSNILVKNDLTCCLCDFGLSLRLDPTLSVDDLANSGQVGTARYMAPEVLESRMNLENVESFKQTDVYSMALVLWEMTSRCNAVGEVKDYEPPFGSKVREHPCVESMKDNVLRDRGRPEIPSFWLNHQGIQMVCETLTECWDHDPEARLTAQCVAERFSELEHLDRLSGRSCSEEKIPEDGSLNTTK
UniProt P37023, residues 22-503: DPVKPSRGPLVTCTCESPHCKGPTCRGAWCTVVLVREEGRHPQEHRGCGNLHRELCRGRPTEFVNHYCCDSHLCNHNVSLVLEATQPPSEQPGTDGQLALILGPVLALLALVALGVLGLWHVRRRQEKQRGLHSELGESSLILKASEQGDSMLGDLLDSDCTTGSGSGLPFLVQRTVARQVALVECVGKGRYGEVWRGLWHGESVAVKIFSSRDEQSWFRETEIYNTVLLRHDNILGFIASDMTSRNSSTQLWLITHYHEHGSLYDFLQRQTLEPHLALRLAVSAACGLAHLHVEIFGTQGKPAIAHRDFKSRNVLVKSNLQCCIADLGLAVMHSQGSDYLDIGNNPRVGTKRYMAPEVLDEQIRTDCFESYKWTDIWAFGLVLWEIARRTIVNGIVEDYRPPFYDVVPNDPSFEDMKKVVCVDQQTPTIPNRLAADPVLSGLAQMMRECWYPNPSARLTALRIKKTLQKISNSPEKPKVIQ
UniProt P08476, residues 311-426: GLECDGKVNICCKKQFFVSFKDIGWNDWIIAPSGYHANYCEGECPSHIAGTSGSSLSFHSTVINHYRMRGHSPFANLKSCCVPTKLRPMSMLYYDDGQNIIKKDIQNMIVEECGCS

Key:
Assay in all cases: Ligand Surface Binding Assay
[1] = molecular target: ALK6-Halo (human) (UniProt O00238)
[2] = molecular target: T1, ALK2-R206H-Halo (human) (UniProt Q04771)
T1 sequence: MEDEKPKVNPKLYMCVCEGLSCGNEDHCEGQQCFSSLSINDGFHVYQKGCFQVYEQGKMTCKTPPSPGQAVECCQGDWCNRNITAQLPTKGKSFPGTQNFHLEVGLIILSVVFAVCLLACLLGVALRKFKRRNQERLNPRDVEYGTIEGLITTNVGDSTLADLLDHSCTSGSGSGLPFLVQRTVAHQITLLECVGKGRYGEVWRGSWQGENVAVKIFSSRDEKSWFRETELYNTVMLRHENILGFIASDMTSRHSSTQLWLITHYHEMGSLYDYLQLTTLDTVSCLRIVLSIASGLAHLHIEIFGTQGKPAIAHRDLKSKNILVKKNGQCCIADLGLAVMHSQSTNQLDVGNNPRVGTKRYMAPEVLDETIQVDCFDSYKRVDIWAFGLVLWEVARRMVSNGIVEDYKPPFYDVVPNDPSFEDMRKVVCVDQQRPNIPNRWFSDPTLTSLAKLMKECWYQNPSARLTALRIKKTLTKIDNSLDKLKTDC

[3] = molecular target: TGFBR2-Halo (human) (UniProt P37173)
[4] = molecular target: T2, ALK7-Halo (rat (printed as rALK7)) (UniProt P70539)
T2 sequence: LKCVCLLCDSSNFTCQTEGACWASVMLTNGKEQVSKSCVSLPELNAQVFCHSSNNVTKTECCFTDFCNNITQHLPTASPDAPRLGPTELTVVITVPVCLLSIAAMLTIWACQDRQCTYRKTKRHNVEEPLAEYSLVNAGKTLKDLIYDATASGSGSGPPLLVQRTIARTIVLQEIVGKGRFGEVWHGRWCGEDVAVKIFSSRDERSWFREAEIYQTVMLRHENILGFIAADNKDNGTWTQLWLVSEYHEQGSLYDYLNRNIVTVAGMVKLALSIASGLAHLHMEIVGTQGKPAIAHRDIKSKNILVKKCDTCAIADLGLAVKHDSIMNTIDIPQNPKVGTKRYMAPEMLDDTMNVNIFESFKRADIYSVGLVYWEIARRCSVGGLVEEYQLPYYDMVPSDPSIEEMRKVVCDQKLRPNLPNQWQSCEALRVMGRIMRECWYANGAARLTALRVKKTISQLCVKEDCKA

[5] = molecular target: ALK1-Halo (human) (UniProt P37023)

Measured: binding

Activin A-Cy5 (from UniProt P08476 311-426) (ligand)
no binding (tested: 2 nM): [1] | [2] | [3] | [4] | [5]
